Measurements: patent US20180280480A1, “COMPOSITIONS AND PEPTIDES HAVING DUAL GLP-1R AND GLP-2R AGONIST ACTIVITY” (priority 2014, published 2018)
At least one structure is not confirmed: it was looked up by name or label, or the drawing left a doubt.

Columns and labels:
Type in all cases: in vivo
[1] = test system: Diet Induced Obese (DIO) Sprague-Dawley Rats; assay: Small and large intestinal volume (stereology) in DIO Sprague-Dawley rats; conditions: Day 25; 82 nmol/kg; mean ± S.E.M.
Method: (§1) Thirty (30) male Sprague-Dawley rats (7 weeks of age) were purchased from Taconic (Denmark) and transferred to the Gubra animal unit. During the acclimatization period, the rats were housed two per cage under a 12:12 light dark cycle (lights on from 04.00-16.00 h) at controlled temperature conditions (22±1° C.; 50±10% relative humidity). Throughout the study the rats had ad libitum access to a two choice diet—regular Altromin 1324 rodent chow (Brogaarden, Denmark) and a paste made from Chocolate spread (Nutella, Ferrero Italy), peanut butter and powdered regular Altromin 1324 rodent chow (Brogaarden, Denmark). The animals were kept on the diet for 65 weeks before experimentation. Animals were switched to single housing during the entire study period (day −6 to 25).
The animals were randomized into three study groups (n=10 per group) based on body weight recorded on day −1 to participate in one of the following groups: Group 1: Vehicle, SC, BID. […] Body weight was measured from day −3 to termination on day 25. Total body fat mass was analyzed before study start (day −1) and before termination (study day 25) by non-invasive EchoMRI-900 (EchoMRI, USA). […] Blood glucose was measured from tail vein blood before (t=−120 and 0 min, baseline) and after glucose administration (t=15, 30, 60 and 120 min). […]

lean NMRI mice = assay: Acute effect on food intake in lean NMRI mice
Method: All animals were housed in groups of four. The animal room environment were controlled (targeted ranges: temperature 22±2° C.; relative humidity 50±10%; light/dark cycle: 12 hours light, 12 hours dark, lights off from 14.00 to 02.00 hours). The mice had ad libitum access to Altromin (Brogaarden, Denmark) and tap water. Mice arrived 5 days prior to the initiation of the study and were transferred to the HM-2 system. From arrival day no food was provided in the cages thereby forcing the animals to learn to eat from the food channels thus habituating the animals faster to the HM-2 system. Food intake and body weight were measured from day −3 and throughout the study. Food intake data were collected using the HM-2 real-time food intake monitoring system, an online computerized feeding system using digital weighing cells. […] The HM-2 system continuously and in real-time mode monitored feeding activity in two independent channels and recorded the start and finishing time of each meal and the amount of food consumed by each animal within the selected time interval without human intervention. The net food intake was calculated by the HM-2 control unit software (HMLab, MBRose, Faaborg, Denmark).
Doses were administered subcutaneously (dose volume 5 ml/kg), in the lower back region. Food intake was measured up to 68 hours following the dosing of the animals.

[2] = test system: diabetic db/db (BKS.Cg-m+/+Leprdb/J) male mice; assay: Fed blood glucose and HbA1c in diabetic db/db mice
Method: (§2) A total of forty-six (46) diabetic db/db (BKS.Cg-m+/+Leprdb/J) male mice, 5 weeks old at arrival, was obtained from Janvier (France). The mice were acclimatized for two weeks in their new environment with free access to normal chow (Altromin 1324, Brogaarden A/S, Gentofte, Denmark) and domestic quality tap water. They were housed in groups of n=2 in a light-, temperature-, and humidity-controlled room (12-hour light: 12-hour dark cycle, lights On/Off at 04.00/16.00 h; 22±1° C.; 50±10% relative humidity). During the habituation period animals was accustomed to the experimental paradigm.
(§3) Baseline, free fed blood glucose samples were obtained bi-weekly prior to study start (blood was collected from the tail vein) in order to screen for the diabetic state. The 40 animals closest to the mean BG/BW value at day −3 were randomized into 4 groups (n=10/group; the remaining 6 animals was be discarded from the main study): Group 1: Vehicle, BID, SC. Group 2: SEQ ID NO 6, 50 nmol/kg, BID, SC. Group 3: SEQ ID NO 6, 250 nmol/kg, BID, SC. […] During day 0-58 of the experiment, animals received a subcutaneous dosing twice daily at 06.00-08.00 hours and again between 02.00-04.00 hours. Dose volume was 5 ml/kg.
On experimental day 56 an oral glucose tolerance test was performed. Animals were mildly fasted as food was removed 4 hours prior to administration of the glucose bolus. Compounds were administered 45 minutes prior to the OGTT. At t=0, mice received an oral glucose load of 2 g/kg glucose (Glucose 200 mg/ml, Fresenius Kabi, Sweden). Glucose was given as gavage via a gastrically placed tube connected to a syringe ensuring accurate dosing. Blood samples were collected from the tail vein and blood-glucose was measured at time points −60, 0, 15, 30, 60, 120 and 240 minutes after the glucose administration. Samples for measuring HbA1c was taken in parallel with blood glucose at t=−60 minutes. Mice were re-fed after the last blood sampling.

C57BL/6J mice [3] = assay: Gut proliferation in C57BL/6J mice, PoC study 2 (liraglutide and teduglutide)
From the text: Forty (40, n=10, 4 groups) male C57BL/6J mice obtained from Taconic, Denmark, were used. At the time of the experiment, the mice had reached an age of 9-10 weeks. The mice were acclimatized for one week in their new environment and offered regular chow diet (Altromin 1324, Brogaarden A/S, Denmark) and domestic quality tap water. Animals were housed two per cage during the study, in a light-, temperature-, and humidity-controlled room (12-hour light: 12-hour dark cycle, lights on/off at 4 AM/4 PM hour; 22±1° C.; 50±10% relative humidity). […] Animals were uniquely identified with implantable microchips (Pet ID Microchip, E-vet) in all mice upon arrival. Animals were identified using the WS-2 weight station (MBrose ApS, Faaborg, Denmark) connected to a laptop running the HM02Lab software (Ellegaard Systems, Faaborg, Denmark). The HM02Lab software matches the body weight with ID and calculates the dose directly based on the body weight. All mice were handled for 3 days prior to the experiment to acclimatize the animals to handling and injections.

[4] = test system: diabetic db/db (BKS.Cg-m+/+Leprdb/J) male mice; assay: Intestinal volume and surface area (stereology) in diabetic db/db mice; conditions: Day 58; 50 nmol/kg BID SC; mean ± S.E.M.
Method: as §2, with “The mice were acclimatized for two weeks in their new environment with free access to normal chow (Altromin 1324, Brogaarden A/S, Gentofte, Denmark) and domestic quality tap water.” left out
as §3, with “SC.” for “SC. Group 2: SEQ ID NO 6, 50 nmol/kg, BID, SC. Group 3: SEQ ID NO 6, 250 nmol/kg, BID, SC.”
At the end of the study period mice were terminated by decapitation under isoflurane anaesthesia. The entire intestine was dissected out and divided into small and large which was then measured in length.

[5] = test system: Diet Induced Obese (DIO) Sprague-Dawley Rats; assay: Body weight and whole body fat mass in DIO Sprague-Dawley rats; conditions: for Body weight / Whole body fat mass: mean ± S.E.M.; for Whole body fat mass: EchoMRI
Method: as §1
The animals were randomized into three study groups (n=10 per group) based on body weight recorded on day −1 to participate in one of the following groups: Group 1: Vehicle, SC, BID. Group 2: SEQ ID NO 6, 82 nmol/kg (day 2-7), 164 nmol/kg (day 8-14) and 328 nmol/kg (day 15-25), SC, BID. […] Dosing took place in the morning (between 06.00 and 08.00 h) and prior to lights out in the afternoon (between 13.30 and 14.00 h). Doses were administered subcutaneously with a dose volume 1 ml/kg. All rats were handled prior to experimentation to acclimatize the animals to handling and procedures. Body weight was measured from day −3 to termination on day 25. Total body fat mass was analyzed before study start (day −1) and before termination (study day 25) by non-invasive EchoMRI-900 (EchoMRI, USA). On day 23 of the study, rats were subjected to an oral glucose tolerance test (OGTT). Animals were mildly fasted as all food was removed 4 hours prior to the oral glucose load. Vehicle and compounds were administered subcutaneously (SC) 2 hours prior to the OGTT. At t=0 rats received an oral glucose load (2 g/kg; 4 ml/kg; […], Fresenius Kabi, Sweden). Glucose was given as gavage via a gastrically-placed tube connected to a syringe ensuring accurate dosing. Blood glucose was measured from tail vein blood before (t=−120 and 0 min, baseline) and after glucose administration (t=15, 30, 60 and 120 min). Blood samples was collected into 10 μl heparinized glass capillary tubes and immediately suspended in buffer (0.5 ml of glucose/lactate system solution (EKF-diagnostics, Germany) and analyzed for glucose on the test day using a BIOSEN c-Line glucose meter (EKF-diagnostics, Germany) according to manufacturer's instructions. On study day 25, the rats were terminated and the GI tract was removed. Intestines were flushed with saline, weighed and then fixated in 4% PFA for determination of small and large intestinal volume by stereological methods as described by Hansen et al. 2013, Am J Transl Res 5(3): 347-58).

[6] = test system: diabetic db/db (BKS.Cg-m+/+Leprdb/J) male mice; assay: Oral glucose tolerance test in diabetic db/db mice; conditions: Day 56; 50 nmol/kg BID SC; mean ± S.E.M.
Method: as §2
Baseline, free fed blood glucose samples were obtained bi-weekly prior to study start (blood was collected from the tail vein) in order to screen for the diabetic state. The 40 animals closest to the mean BG/BW value at day −3 were randomized into 4 groups (n=10/group; the remaining 6 animals was be discarded from the main study): Group 1: Vehicle, BID, SC. Group 2: SEQ ID NO 6, 50 nmol/kg, BID, SC. Group 3: SEQ ID NO 6, 250 nmol/kg, BID, SC. […]
On experimental day 56 an oral glucose tolerance test was performed. […] Blood samples were collected from the tail vein and blood-glucose was measured at time points −60, 0, 15, 30, 60, 120 and 240 minutes after the glucose administration. […]

C57BL/6J mice [7] = assay: Acute food intake in C57BL/6J mice; conditions: Day 0: 0-[…] (lights off); single SC dose 0.2 mg/kg; mean ± SEM
Method: The C57BL/6J mice arrived 7 days prior to the initiation of the study. During these days, animals were handled daily to accustom them to the experimental paradigm. At Day −1, the mice were randomised according to body weight to participate in one of following drug treatment groups (n=6-8 in each group): Group 1: vehicle. […] Group 3-5: SEQ ID NO 3; 3.0; 1.0; 0.3 mg/kg. Group 6-8: SEQ ID NO 4; 3.0; 1.0; 0.3 mg/kg. Group 9-11: SEQ ID NO 5; 3.0; 1.0; 0.3 mg/kg. Group 12-14: SEQ ID NO 6; 3.0; 1.0; 0.3 mg/kg. Group 15-17: SEQ ID NO 7; 3.0; 1.0; 0.3 mg/kg. Three days prior to initiation of dosing, all animals were handled daily and accustomed to the experimental conditions by subcutaneous mock injections (i.e. nipping the skin of the back). Baseline food intake was monitored four days prior to the study. Mice were randomized according to body weight on Day −1. Animals were subjected to two separate injections. First acute dose was administered prior to lights out at Day 0 and food intake was monitored 24 hours post dosing. On Day 3, mice were re-randomised into new treatment groups and dosed prior to lights out. Food intake was monitored 24 hours post dosing. Body weight was measured daily from Day −5 and throughout the study. The study was terminated on Day 5. […] Food intake and body weight were measured from Day −7 and throughout the study. […]

[8] = test system: Diet Induced Obese (DIO) Sprague-Dawley Rats; assay: Oral glucose tolerance test in DIO Sprague-Dawley rats; conditions: Day 23; 82 nmol/kg; mean ± S.E.M.
[9] = Day 56, 50 nmol/kg BID SC, mean ± S.E.M.
[10] = Day 8, BID SC, liraglutide 0.2 mg/kg, teduglutide 1.0 mg/kg, alone or combined, mean ± S.E.M.

CCCCCCCCCCCCCCCC(=O)N[C@@H](CCC(=O)NCCCC[C@H](NC(=O)[C@H](C)NC(=O)[C@H](C)NC(=O)[C@H](CCC(N)=O)NC(=O)CNC(=O)[C@H](CCC(=O)O)NC(=O)[C@H](CC(C)C)NC(=O)[C@H](Cc1ccc(O)cc1)NC(=O)[C@H](CO)NC(=O)[C@H](CO)NC(=O)[C@@H](NC(=O)[C@H](CC(=O)O)NC(=O)[C@H](CO)NC(=O)[C@@H](NC(=O)[C@H](Cc1ccccc1)NC(=O)[C@@H](NC(=O)CNC(=O)[C@H](CCC(=O)O)NC(=O)[C@H](C)NC(=O)[C@@H](N)Cc1cnc[nH]1)[C@@H](C)O)[C@@H](C)O)C(C)C)C(=O)N[C@@H](CCC(=O)O)C(=O)N[C@@H](Cc1ccccc1)C(=O)N[C@H](C(=O)N[C@@H](C)C(=O)N[C@@H](Cc1c[nH]c2ccccc12)C(=O)N[C@@H](CC(C)C)C(=O)N[C@H](C(=O)N[C@@H](CCCNC(=N)N)C(=O)NCC(=O)N[C@@H](CCCNC(=N)N)C(=O)NCC(=O)O)C(C)C)[C@@H](C)CC)C(=O)O [Liraglutide, reference compound]
Large intestine volume [1]: 2.22 ± 0.21 cm^3 | Small intestine volume [1]: 5.36 ± 0.48 cm^3 | acute food intake compared to vehicle (lean NMRI mice; 12 and 24 hours after single dose of 50 nmol/kg): significantly reduced the acute food intake | food intake compared to vehicle (lean NMRI mice; 60 hours after single dose of 50 nmol/kg): no difference in food intake compared to the vehicle | effect on fed-state blood glucose, HbA1c and glucose tolerance ([2]; 8 weeks of treatment, db/db mice): reduction in fed-state blood glucose levels, HbA1c levels as well as an improving of glucose tolerance | Blood glucose, fed state [2, 9]: 5.6 ± 0.7 mmol/L | HbA1c [2, 9]: 4.5 ± 0.2 % | Gut wet weight (C57BL/6J mice [3]; [10]): 3.2 ± 0.3 ^### g | Large intestine length (C57BL/6J mice [3]; [10]): 5.9 ± 0.4 cm | Large intestine weight (C57BL/6J mice [3]; [10]): 0.30 ± 0.01 g | Small intestine length (C57BL/6J mice [3]; [10]): 24.2 ± 1.5 cm | Small intestine weight (C57BL/6J mice [3]; [10]): 1.5 ± 0.3 ^### g | effect of single treatment on gut weight and length (C57BL/6J mice [3]; PoC study 2, Tables 5, 6, 8, 9): increases in gut wet weight (Table 5), small intestine weight (Table 6), small intestine length (Table 8) and large intestine length (Table 9) | Large intestine volume [4]: 232.6 ± 7.0 mm^3 | Small intestine surface area [4]: 144.3 ± 8.4 cm^2 | Small intestine volume [4]: 1072 ± 38.1 mm^3 | effect on body weight and total body fat mass ([5]; 25 days of treatment in DIO rats): significant decreases in body weight and total body fat mass | Body weight ([5]; Day 0 (baseline), 82 nmol/kg SC BID group): 984.4 ± 29.4 g | Whole body fat mass ([5]; Day 25, 82 nmol/kg SC BID): 272.7 ± 18.9 g | Body weight ([5]; Day 25, 82 nmol/kg SC BID): 801.5 ± 25.4 g | Whole body fat mass ([5]; Day −1 (baseline), 82 nmol/kg SC BID group): 392.1 ± 21.6 g | Blood glucose during an oral glucose tolerance test. Area under the curve (AUC) −240 to 240 min. [6]: 3123 ± 278 mmol·min/L | Total food intake (g/animal) (C57BL/6J mice [7]): 0.08 ± 0.03 g/animal | Blood glucose during an oral glucose tolerance test. Area under the curve (AUC) −45 to 240 min. [8]: 2299 ± 161.4 mmol·min/L
